For 1 molecule, binding results are on record in article PMC10700341.

No constants are given. Whether binding was seen depends on the method and setting. In cells and extracts the contact can be indirect. Binding calls can cover weak binding; strength is not graded here. Sequences can lack the tags named with a protein.

This assay has as its target chicken leptin receptor, FLAG-tagged (chicken). The assay is described as follows: co-IP; lysates of DF-1 cells expressing both Myc-tagged leptin and FLAG-tagged chLEPR; lysis buffer 50 mM Tris-HCl pH 8.0, 137 mM NaCl, 1% Triton X-100, 1 mM EDTA, 10% glycerol; anti-FLAG or anti-Myc magnetic beads, 4 °C overnight; immunoblotting. Background: A western blot detects proteins with antibodies after separation by electrophoresis.

B1: chicken leptin, Myc-tagged (ligand, UniProt O42164 19-163)
chain: VPCQIFQDDTKTLIKTIVTRINDISHTSVSAKQRVTGLDFIPGLHPILSLSKMDQTLAVYQQVLTSLPSQNVLQIANDLENLRDLLHLLAFSKSCSLPQTSGLQKPESLDGVLEASLYSTEVVALSRLQGSLQDILQQLDISPEC
As for B1, the binding result is given as “binds”.
